Source: patent publication US20240400689A1
These are yes or no findings as the source states them, for the method shown. Some results given as binding are weak or reduced against the parent protein; the word gives no strength.

The chains behind the UniProt entries cited, without tags or fusion partners. Residues count along the entry.
UniProt Q5ZPR3, residues 29-534: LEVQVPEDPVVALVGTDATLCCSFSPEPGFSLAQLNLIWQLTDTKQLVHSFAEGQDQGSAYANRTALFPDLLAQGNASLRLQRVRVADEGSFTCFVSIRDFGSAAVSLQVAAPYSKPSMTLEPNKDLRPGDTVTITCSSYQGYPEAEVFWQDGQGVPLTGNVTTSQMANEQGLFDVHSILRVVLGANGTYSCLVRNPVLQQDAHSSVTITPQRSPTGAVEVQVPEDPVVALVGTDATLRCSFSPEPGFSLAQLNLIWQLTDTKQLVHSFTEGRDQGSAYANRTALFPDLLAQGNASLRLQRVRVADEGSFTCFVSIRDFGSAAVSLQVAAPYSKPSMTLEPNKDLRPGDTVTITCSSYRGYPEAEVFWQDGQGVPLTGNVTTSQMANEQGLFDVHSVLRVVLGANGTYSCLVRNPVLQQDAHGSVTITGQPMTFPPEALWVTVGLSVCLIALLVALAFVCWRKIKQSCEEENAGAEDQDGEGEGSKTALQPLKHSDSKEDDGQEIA

Molecular target: human CD276 protein (human) (UniProt Q5ZPR3)
Assay: FACS on CHO-S-hCD276 cells

binding: binds
B1: 4-D5-B9-B11 (antibody, V domains shown)
VH: EIGGLVKPGGSLKFSCAASGFTFSSYAMSWVRQTPEKRLEWVATISGGGIYYPDSVKGRFTISRDNAKNTLYLQMSSLRSEDTAMYYCARQGSKGWDAMDYWGQGTSVTVSS
VL: QIVLTQSPAIMSASPGEKVTMTCRASSSVSFMHWYQQKSGTSPKRWIYETSKLASGVPDRFSGSGSGTSYSLTISSMEAEDAATYYCQQWSSNPLTFGAGTKLELK
